Experimental data reported in the supplement of paper PMC10373366.
Where a name gives a salt, the structure may show the parent alone. The list shows a part of the results. Single values are uncertain, as repeats are few or missing.

system: A2780; assay: cell growth inhibition ratio vs untreated control (CCK8); higher = stronger inhibition of cell viability; settings: 10 µM; 48 h
Procedure: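 Natural product library (Topscience) screened at 10 µM final concentration for 48 h on ovarian cancer A2780 cells and patient-derived ovarian cancer cells (PDC) in 96-well plates; viability read by CCK8 and reported as inhibition ratio (%) relative to untreated control. Single-dose primary screen.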

| SMILES | cell growth inhibition ratio |
| --- | --- |
| Nc1ncnc2c1ncn2[C@@H]1O[C@H](CO)[C@@H](O)[C@H]1O [Adenosine] | 3.94% |
| C/C=C/c1ccc(OC)cc1 [Trans-Anethole] | 19.4% |
| C[C@H](CCC(=O)NCCS(=O)(=O)O)[C@H]1CC[C@H]2[C@@H]3[C@H](O)C[C@@H]4C[C@H](O)CC[C@]4(C)[C@H]3C[C@H](O)[C@]12C [Taurocholic acid sodium salt hydrate] | -2.16% |
| O=C1OC(=O)[C@H]2[C@@H]1[C@@H]1CC[C@H]2O1 [Norcantharidin] | 0.043% |
| CCOC(=O)C1=C[C@]2(CC)CCCN3CCc4c(n1c1ccccc41)[C@@H]32 [Vinpocetine] | -0.464% |
| COc1ccc2[nH]cc(CCNC(C)=O)c2c1 [Melatonine] | 2.34% |
| CCc1c2c(nc3ccc(OC(=O)N4CCC(N5CCCCC5)CC4)cc13)-c1cc3c(c(=O)n1C2)COC(=O)[C@]3(O)CC [Irinotecan] | 7.14% |
| CC(C)=CCC[C@@](O)(CO[C@@H]1O[C@H](CO)[C@@H](O)[C@H](O)[C@H]1O)[C@H]1CC[C@]2(C)[C@@H]1CC[C@@H]1[C@@]3(C=O)CC[C@H](O[C@@H]4OC[C@H](O)[C@H](O[C@@H]5OC[C@@H](O)[C@H](O)[C@H]5O)[C@H]4O[C@@H]4O[C@@H](C)[C@H](O)[C@@H](O)[C@H]4O)C(C)(C)[C@@H]3CC[C@]12C [Gypenoside XLIX] | -6.06% |
| CC1OC(OC2C(OC3CC4(C)C(CC(O)C5C(C6(C)CCC(C(C)(C)O)O6)CCC54C)C4(C)CCC(O)C(C)(C)C34)OC(CO)C(O)C2O)C(O)C(O)C1O (stereo not given) [Pseudoginsenoside F11] | 22.1% |
| O[C@H]1[C@H](O)[C@@H](O)[C@H](O)[C@@H](O)[C@H]1O [Inositol] | 11.1% |
| CCc1c2c(nc3ccc(OC(=O)N4CCC(N5CCCCC5)CC4)cc13)-c1cc3c(c(=O)n1C2)COC(=O)[C@]3(O)CC [Irinotecan hydrochloride trihydrate] | 75.5% |
| C=C[C@](C)(O)CC[C@@H]1[C@@]2(C)CCCC(C)(C)[C@@H]2CC[C@@]1(C)O [Sclareol] | 2.75% |
| CC1(C)CC[C@]2(C(=O)O)[C@H](O)C[C@]3(C)C(=CC[C@@H]4[C@@]5(C)CC[C@H](O)[C@@](C)(C=O)[C@@H]5CC[C@]43C)[C@@H]2C1 [Quillaic Acid] | 11.8% |
| C[N+](C)(C)CC(=O)O [Betaine] | 12.9% |
| CC(C)[C@@H](C)/C=C/[C@@H](C)[C@H]1CC[C@H]2C3=CC=C4C[C@@H](O)CC[C@]4(C)[C@H]3CC[C@]12C [Ergosterol] | 4.39% |
| OCCc1ccc(O)cc1 [Tyrosol] | -3.64% |
| CC[C@H](C)C(=O)O[C@H]1C[C@@H](C)C=C2C=C[C@H](C)[C@H](CC[C@@H]3C[C@@H](O)CC(=O)O3)[C@H]21 [Lovastatin] | 60.9% |
| CC[C@@]1(O)C(=O)OCc2c1cc1n(c2=O)Cc2cc3c(CN(C)C)c(O)ccc3nc2-1 [Topotecan hydrochloride] | 81.8% |
| C=CCS[S+]([O-])CC=C (stereo not given) [Allicin] | -1.9% |
| CCOC(=O)c1ccc(O)cc1 [Ethylparaben] | 10.2% |
| CC(/C=C/C=C(\C)C(=O)O[C@@H]1O[C@H](CO[C@@H]2O[C@H](CO)[C@@H](O)[C@H](O)[C@H]2O)[C@@H](O)[C@H](O)[C@H]1O)=C\C=C\C=C(C)\C=C\C=C(/C)C(=O)O[C@@H]1O[C@H](CO[C@@H]2O[C@H](CO)[C@@H](O)[C@H](O)[C@H]2O)[C@@H](O)[C@H](O)[C@H]1O [Crocin] | -15.7% |
| COc1cc(CCC(=O)O)ccc1O [Hydroferulic acid] | -0.791% |
| C[C@H]1CC[C@@]2(OC1)O[C@H]1C[C@H]3[C@@H]4CC[C@@H]5C[C@@H](O[C@@H]6O[C@H](CO)[C@H](O)[C@H](O)[C@H]6O[C@@H]6O[C@H](CO)[C@@H](O)[C@H](O)[C@H]6O)CC[C@]5(C)[C@H]4CC[C@]3(C)[C@H]1[C@@H]2C [Timosaponin AIII] | 93.2% |
| O=C(O)CCc1ccc(O)cc1 [Phloretic acid] | -0.47% |
| COC(=O)[C@@]1(C)CC[C@]2(C(=O)O)CC[C@]3(C)C(=CC[C@@H]4[C@@]5(C)C[C@H](O)[C@H](O[C@@H]6OC[C@@H](O[C@@H]7O[C@H](CO)[C@@H](O)[C@H](O)[C@H]7O)[C@H](O)[C@H]6O)[C@@](C)(CO)[C@@H]5CC[C@]43C)[C@@H]2C1 [Esculentoside A] | 19.3% |

Shown with bars between the fields: entries from further up.
SMILES | cell growth inhibition ratio
Nc1ncnc2c1ncn2[C@@H]1O[C@H](CO)[C@@H](O)[C@H]1O [Adenosine] | 3.94%
CCOC(=O)c1ccc(O)cc1 [Ethylparaben] | 10.2%
